In the supplement of paper PMC10849652:
The list shows a part of the results. Residues, ends and D or L forms follow the SMILES beside them. *: point of attachment. Cbz = O=C(OCc1ccccc1)*

Sequences of proteins named here, by UniProt entry; tags and fusion partners are left off. A change or cut given only in a name is not applied to a line headed by its entry.
UniProt Q14696: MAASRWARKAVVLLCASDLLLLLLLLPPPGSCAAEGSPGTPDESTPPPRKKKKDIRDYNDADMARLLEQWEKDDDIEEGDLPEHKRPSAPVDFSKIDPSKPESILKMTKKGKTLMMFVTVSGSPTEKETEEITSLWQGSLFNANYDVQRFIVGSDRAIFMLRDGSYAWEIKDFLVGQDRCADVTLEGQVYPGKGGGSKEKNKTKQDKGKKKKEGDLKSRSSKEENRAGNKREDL
UniProt Q9BTE3: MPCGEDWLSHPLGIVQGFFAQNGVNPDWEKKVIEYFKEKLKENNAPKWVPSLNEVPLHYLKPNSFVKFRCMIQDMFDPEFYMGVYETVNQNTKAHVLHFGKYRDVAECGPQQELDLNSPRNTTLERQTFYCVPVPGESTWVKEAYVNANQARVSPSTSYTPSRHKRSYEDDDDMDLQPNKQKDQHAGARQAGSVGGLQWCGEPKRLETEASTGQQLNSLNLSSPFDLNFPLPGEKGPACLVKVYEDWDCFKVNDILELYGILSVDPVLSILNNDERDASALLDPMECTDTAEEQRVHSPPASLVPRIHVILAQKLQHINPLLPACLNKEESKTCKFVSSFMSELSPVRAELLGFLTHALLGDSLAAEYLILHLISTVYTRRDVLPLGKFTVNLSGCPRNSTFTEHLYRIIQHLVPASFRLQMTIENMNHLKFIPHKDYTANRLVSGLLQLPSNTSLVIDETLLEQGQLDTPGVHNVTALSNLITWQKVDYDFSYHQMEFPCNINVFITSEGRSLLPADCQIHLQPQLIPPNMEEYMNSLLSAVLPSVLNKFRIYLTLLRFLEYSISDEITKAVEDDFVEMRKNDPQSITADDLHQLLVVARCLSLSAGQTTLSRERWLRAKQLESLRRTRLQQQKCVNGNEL
UniProt Q9GZY8: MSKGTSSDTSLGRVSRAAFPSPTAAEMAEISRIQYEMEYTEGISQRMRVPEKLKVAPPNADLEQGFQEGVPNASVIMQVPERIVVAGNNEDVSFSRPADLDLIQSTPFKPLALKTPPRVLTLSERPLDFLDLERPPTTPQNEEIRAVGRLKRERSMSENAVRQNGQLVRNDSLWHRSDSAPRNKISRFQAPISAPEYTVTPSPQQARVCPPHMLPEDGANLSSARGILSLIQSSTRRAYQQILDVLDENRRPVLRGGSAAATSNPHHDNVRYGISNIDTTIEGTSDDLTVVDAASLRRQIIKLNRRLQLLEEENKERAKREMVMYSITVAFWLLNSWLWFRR
UniProt Q9HCE5: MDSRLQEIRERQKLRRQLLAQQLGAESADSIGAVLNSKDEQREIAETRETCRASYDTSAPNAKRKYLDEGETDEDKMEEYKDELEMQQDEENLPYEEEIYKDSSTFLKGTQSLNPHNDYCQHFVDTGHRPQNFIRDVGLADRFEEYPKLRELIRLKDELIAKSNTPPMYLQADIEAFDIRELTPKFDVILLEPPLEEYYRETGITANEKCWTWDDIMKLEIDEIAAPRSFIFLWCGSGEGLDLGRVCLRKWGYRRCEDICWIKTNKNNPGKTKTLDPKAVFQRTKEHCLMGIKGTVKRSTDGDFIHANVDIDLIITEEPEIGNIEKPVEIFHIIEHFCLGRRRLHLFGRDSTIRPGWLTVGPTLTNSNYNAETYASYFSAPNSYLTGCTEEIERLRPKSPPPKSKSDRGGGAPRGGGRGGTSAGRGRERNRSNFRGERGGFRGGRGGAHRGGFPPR
UniProt Q9Y2X0: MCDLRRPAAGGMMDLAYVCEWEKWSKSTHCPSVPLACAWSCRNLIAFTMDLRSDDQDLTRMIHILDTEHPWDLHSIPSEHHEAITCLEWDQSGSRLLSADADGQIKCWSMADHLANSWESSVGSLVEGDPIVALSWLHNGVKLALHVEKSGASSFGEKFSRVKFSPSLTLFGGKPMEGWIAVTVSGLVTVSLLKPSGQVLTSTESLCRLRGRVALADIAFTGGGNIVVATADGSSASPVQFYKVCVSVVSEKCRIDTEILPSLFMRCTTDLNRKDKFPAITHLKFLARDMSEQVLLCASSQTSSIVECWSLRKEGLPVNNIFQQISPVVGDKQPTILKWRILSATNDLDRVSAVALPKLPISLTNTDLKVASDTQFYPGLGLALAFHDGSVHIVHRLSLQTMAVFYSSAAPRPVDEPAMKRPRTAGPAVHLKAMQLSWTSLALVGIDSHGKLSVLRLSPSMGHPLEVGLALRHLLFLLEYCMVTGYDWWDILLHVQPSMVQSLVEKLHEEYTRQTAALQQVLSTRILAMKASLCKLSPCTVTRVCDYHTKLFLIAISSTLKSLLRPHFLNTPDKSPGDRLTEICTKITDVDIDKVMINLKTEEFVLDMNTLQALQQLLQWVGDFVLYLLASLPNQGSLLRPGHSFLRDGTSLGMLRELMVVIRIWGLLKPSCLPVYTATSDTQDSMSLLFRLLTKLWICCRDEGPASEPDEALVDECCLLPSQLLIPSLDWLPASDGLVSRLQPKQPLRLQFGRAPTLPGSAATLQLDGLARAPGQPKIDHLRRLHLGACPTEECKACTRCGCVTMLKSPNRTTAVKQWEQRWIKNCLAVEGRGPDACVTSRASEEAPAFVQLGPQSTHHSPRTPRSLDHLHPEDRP
UniProt Q8NI22: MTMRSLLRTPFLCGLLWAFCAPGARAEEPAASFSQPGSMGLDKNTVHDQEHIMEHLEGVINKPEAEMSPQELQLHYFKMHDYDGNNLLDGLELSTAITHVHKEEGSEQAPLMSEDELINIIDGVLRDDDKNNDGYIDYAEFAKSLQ
UniProt P43243: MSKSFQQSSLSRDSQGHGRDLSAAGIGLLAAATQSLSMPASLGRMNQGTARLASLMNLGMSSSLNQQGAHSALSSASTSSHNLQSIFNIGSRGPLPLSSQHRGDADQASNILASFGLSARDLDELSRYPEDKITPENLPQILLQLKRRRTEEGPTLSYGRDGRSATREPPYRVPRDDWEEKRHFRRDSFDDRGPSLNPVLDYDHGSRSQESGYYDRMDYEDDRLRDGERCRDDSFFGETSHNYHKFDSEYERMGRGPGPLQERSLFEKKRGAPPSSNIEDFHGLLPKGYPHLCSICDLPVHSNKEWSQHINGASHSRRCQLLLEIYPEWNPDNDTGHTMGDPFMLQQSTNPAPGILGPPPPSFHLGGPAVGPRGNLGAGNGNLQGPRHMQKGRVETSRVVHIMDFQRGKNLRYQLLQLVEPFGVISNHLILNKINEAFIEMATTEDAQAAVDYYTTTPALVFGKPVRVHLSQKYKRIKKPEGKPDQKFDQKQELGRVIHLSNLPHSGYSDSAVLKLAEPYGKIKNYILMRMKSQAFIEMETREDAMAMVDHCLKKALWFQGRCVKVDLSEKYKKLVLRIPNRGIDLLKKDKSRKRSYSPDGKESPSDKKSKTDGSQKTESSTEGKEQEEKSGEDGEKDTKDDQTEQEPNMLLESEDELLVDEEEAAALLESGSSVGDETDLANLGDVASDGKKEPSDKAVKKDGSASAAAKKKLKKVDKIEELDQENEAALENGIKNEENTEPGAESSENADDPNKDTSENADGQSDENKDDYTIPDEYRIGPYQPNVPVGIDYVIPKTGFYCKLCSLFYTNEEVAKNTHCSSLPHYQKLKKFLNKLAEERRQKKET
UniProt Q6UB28: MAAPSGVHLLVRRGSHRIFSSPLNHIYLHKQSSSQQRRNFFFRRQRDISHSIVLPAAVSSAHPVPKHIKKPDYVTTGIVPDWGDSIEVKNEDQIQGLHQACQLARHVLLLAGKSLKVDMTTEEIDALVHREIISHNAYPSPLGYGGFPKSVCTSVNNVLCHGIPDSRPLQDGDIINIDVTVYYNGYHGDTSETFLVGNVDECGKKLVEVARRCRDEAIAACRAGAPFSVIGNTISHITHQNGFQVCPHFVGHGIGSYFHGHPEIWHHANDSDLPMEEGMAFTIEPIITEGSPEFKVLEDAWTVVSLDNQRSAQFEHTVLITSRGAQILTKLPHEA
UniProt O43513: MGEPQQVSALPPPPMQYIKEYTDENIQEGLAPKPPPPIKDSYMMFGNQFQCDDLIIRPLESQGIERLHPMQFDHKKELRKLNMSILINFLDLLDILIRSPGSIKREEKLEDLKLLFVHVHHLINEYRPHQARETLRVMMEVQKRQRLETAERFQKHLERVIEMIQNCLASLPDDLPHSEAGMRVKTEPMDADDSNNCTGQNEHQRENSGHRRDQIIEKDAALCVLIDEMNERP
UniProt P48163: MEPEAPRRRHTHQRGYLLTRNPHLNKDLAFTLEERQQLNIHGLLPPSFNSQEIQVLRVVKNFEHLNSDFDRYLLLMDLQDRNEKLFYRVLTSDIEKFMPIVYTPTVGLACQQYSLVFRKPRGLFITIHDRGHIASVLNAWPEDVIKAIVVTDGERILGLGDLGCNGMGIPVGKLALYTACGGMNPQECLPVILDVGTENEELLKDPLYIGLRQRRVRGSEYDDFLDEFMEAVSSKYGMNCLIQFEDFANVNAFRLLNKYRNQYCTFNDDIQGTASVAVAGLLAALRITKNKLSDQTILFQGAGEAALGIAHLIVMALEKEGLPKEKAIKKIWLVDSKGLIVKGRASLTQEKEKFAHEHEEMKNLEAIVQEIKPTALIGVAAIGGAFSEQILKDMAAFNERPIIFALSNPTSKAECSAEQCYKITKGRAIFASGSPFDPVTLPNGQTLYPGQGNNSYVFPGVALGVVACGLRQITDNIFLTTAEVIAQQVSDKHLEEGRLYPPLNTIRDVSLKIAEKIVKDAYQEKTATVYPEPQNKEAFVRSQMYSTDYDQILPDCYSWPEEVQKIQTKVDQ
UniProt Q9NR56: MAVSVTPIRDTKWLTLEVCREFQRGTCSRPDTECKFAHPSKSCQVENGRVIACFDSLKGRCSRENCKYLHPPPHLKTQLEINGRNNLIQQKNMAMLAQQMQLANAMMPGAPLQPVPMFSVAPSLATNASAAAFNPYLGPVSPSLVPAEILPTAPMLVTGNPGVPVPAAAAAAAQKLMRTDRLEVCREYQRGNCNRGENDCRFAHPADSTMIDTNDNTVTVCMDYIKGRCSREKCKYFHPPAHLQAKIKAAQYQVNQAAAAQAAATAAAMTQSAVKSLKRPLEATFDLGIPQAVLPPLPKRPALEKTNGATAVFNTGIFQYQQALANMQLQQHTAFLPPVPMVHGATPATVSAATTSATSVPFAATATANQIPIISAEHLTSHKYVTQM
UniProt Q96G25: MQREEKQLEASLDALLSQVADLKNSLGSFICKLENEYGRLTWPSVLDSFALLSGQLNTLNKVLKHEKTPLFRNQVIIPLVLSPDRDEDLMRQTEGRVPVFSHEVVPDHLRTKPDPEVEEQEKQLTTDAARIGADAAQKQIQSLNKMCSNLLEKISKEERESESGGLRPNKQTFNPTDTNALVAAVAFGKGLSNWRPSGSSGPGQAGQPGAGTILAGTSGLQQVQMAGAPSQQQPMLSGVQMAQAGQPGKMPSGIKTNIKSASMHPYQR
UniProt Q9GZU1, whole entry, looked up: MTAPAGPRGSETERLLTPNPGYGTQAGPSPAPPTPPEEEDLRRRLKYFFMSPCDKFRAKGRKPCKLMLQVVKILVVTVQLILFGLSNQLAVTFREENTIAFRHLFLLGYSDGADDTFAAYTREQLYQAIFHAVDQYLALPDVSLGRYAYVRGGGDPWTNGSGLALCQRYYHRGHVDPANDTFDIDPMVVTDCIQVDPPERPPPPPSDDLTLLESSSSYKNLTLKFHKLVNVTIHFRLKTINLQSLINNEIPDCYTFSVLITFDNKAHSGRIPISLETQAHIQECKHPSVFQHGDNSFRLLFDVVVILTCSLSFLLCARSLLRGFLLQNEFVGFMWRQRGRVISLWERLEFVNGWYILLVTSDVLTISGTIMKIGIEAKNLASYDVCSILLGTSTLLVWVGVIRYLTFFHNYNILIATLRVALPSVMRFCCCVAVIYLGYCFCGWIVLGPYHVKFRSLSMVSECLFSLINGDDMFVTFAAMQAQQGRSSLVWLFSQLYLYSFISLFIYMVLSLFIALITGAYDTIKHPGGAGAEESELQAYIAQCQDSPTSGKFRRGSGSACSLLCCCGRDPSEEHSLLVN

What was measured:
Experiment in all cases: log2 fold change, soluble protein after heating vs DMSO (PISA); higher = thermal stabilisation; K562 cells, 10 uM, 30 min; active = over 0.2 and 3.5 SD of the protein, either way, in both replicates (recomputed)
IRAK-1-4 Inhibitor I = compound: C1COCCN1CCN2C3=CC=CC=C3N=C2NC(=O)C4=CC(=CC=C4)[N+](=O)[O-] [IRAK-1-4 Inhibitor I]
How it was run: (§1)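 K562 cells at 2×10^6 cells/mL were given 10 μM compound for 30 min. Aliquots then went through 3 min of heating across 48°C-58°C, were pooled, and were extracted in PBS with 0.5% NP-40 at 4°C, and the supernatant after 21,000xg for 90 min was quantified by TMTpro 16plex LC-MS/MS with channel sums equalised. Thermal stability relative to control samples, from duplicates, is given as log2 fold change.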

ibrutinib = compound: C=CC(=O)N1CCC[C@@H](n2nc(-c3ccc(Oc4ccccc4)cc3)c3c(N)ncnc32)C1 [ibrutinib]
How it was run: as §1

[1] = compound: CC(=O)c1cnc2ccc(-c3cc(Cl)c(O)c(Cl)c3)nc2c1N[C@H]1CC[C@H](CN(C)C)CC1
How it was run: as §1

ralimetinib = compound: CC(C)(C)Cn1c(N)nc2ccc(-c3[nH]c(C(C)(C)C)nc3-c3ccc(F)cc3)nc21 [ralimetinib]
How it was run: as §1

[2] = compound: CC(C)(O)CC(=O)NCCn1ccc2ncnc(Nc3ccc(Oc4cccc(C(F)(F)F)c4)c(Cl)c3)c21
How it was run: as §1

[3] = compound: CC(C)C1=C2N=C(C=C(N2N=C1)NCC3=CC=CC=C3)NCCCCCCN
How it was run: as §1

[4] = compound: CC(C)C[C@@H](C=O)NC(=O)[C@H](CC(C)C)NC(=O)[C@H](CC(C)C)NC(=O)OCc1ccccc1
How it was run: as §1

pinometostat = compound: CC(C)N(C[C@H]1O[C@@H](n2cnc3c(N)ncnc32)[C@H](O)[C@@H]1O)[C@H]1C[C@@H](CCc2nc3cc(C(C)(C)C)ccc3[nH]2)C1 [pinometostat]
How it was run: as §1

[5] = compound: CC1=C(C(CC(=O)N1)C2=CC=C(C=C2)C(F)(F)F)C(=O)NC3=C(C=C4C(=C3)C=NN4)F
How it was run: as §1

[6] = compound: CC1=C(C2=C(C=C1)C(=O)C3=CC=CC=C3N2CCCN)C
How it was run: as §1

[7] = compound: CC1=C(C=C(C=C1)NC(=O)C2=CC(=CC=C2)C(C)(C)C#N)NC3=CC4=C(C=C3)N=CN(C4=O)C
How it was run: as §1

[8] = compound: CC1=C(C=C(C=C1)NC(=O)C2=CC(=CC=C2)N(C)C)NC(=O)C3=CC=C(C=C3)O
How it was run: as §1

[9] = compound: CC1=CC=C(C=C1)SC2=C3C=C(SC3=CN=C2)C(=O)N
How it was run: as §1

[10] = compound: CC1=NC(=CC=C1)C2=C(N=C(N2)C(C)(C)C)C3=CC4=NC=CN=C4C=C3
How it was run: as §1

Nexturastat A = compound: CCCCN(Cc1ccc(C(=O)NO)cc1)C(=O)Nc1ccccc1 [Nexturastat A]
How it was run: as §1

vemurafenib = compound: CCCS(=O)(=O)Nc1ccc(F)c(C(=O)c2c[nH]c3ncc(-c4ccc(Cl)cc4)cc23)c1F [vemurafenib]
How it was run: as §1

[11] = compound: CCCS(=O)(=O)Nc1ccc(F)c(C(=O)c2c[nH]c3ncc(Cl)cc23)c1F
How it was run: as §1

[12] = compound: CCCc1cc(C)[nH]c(=O)c1CNC(=O)c1cc(-c2ccnc(N3CCN(C)CC3)c2)cc2c1cnn2C(C)C
How it was run: as §1

givinostat = compound: CCN(CC)Cc1ccc2cc(COC(=O)Nc3ccc(C(=O)NO)cc3)ccc2c1 [givinostat]
How it was run: as §1

barasertib = compound: CCN(CCCOc1ccc2c(Nc3cc(CC(=O)Nc4cccc(F)c4)[nH]n3)ncnc2c1)CCOP(=O)(O)O [barasertib]
How it was run: as §1

Measured: log2 fold change

MESD (UniProt Q14696)
inactive: IRAK-1-4 Inhibitor I 0.001 | ibrutinib -0.041 | [1] 0.001 | ralimetinib -0.146 | [2] 0.024 | [3] -0.008 | [4] -0.064 | pinometostat -0.006 | [5] 0.006 | [6] 0.028 | [7] -0.028 | [8] 0.005 | [9] 0.028 | [10] -0.008 | Nexturastat A -0.112 | vemurafenib -0.018 | [11] -0.012 | [12] -0.021 | givinostat -0.018 | barasertib 0.002

MCMBP (UniProt Q9BTE3)
inactive: IRAK-1-4 Inhibitor I -0.007 | ibrutinib -0.059 | [1] -0.042 | ralimetinib -0.003 | [2] -0.102 | [3] -0.039 | [4] 0.051 | pinometostat -0.036 | [5] -0.048 | [6] 0.181 | [7] 0.021 | [8] -0.119 | [9] 0.041 | [10] -0.017 | Nexturastat A 0 | vemurafenib 0.028 | [11] 0.051 | [12] 0.027 | givinostat 0.053 | barasertib 0.073

MFF (UniProt Q9GZY8)
inactive: IRAK-1-4 Inhibitor I 0.038 | ibrutinib 0.025 | [1] -0.228 | ralimetinib 0.018 | [2] 0.002 | [3] -0.074 | [4] 0.048 | pinometostat -0.012 | [6] -0.042 | [7] -0.036 | [8] 0.002 | [9] 0.039 | [10] 0.02 | Nexturastat A 0.006 | vemurafenib -0.013 | [11] 0.018 | [12] -0.117 | givinostat 0.033 | barasertib 0.036

METTL14 (UniProt Q9HCE5)
inactive: IRAK-1-4 Inhibitor I 0.035 | ibrutinib -0.038 | [1] -0.02 | ralimetinib 0.014 | [2] -0.015 | [3] -0.015 | [4] -0.02 | pinometostat 0.012 | [5] -0.088 | [6] 0.048 | [7] -0.006 | [8] 0.014 | [9] -0.03 | [10] -0.013 | Nexturastat A 0.046 | vemurafenib -0.017 | [11] 0.022 | [12] -0.006 | givinostat -0.096 | barasertib 0.018

MCRIP1 (UniProt I3L4Q0)
inactive: IRAK-1-4 Inhibitor I -0.048 | ibrutinib 0.024 | [1] -0.046 | ralimetinib -0.16 | [2] 0 | [3] 0.055 | [4] 0.063 | pinometostat -0.026 | [5] 0.015 | [6] 0.037 | [7] -0.027 | [8] -0.029 | [9] -0.007 | [10] 0.031 | Nexturastat A 0.009 | vemurafenib 0.041 | [11] -0.063 | [12] -0.091 | givinostat -0.001 | barasertib -0.012

MED16 (UniProt Q9Y2X0)
active: [1] -0.358
inactive: IRAK-1-4 Inhibitor I 0 | ibrutinib 0.003 | ralimetinib 0.033 | [2] -0.029 | [3] -0.008 | [4] 0.064 | pinometostat 0.112 | [6] 0.17 | [7] -0.025 | [8] -0.044 | [9] -0.046 | [10] 0.036 | Nexturastat A 0.162 | vemurafenib -0.017 | [11] 0.046 | [12] 0.014 | givinostat 0.076 | barasertib -0.03

MCFD2 (UniProt Q8NI22)
inactive: IRAK-1-4 Inhibitor I 0.084 | ibrutinib -0.065 | [1] -0.022 | ralimetinib -0.112 | [2] -0.294 | [3] 0.085 | [4] -0.154 | pinometostat -0.033 | [5] 0.061 | [6] 0.323 | [7] 0 | [8] 0.015 | [9] -0.059 | [10] 0.086 | Nexturastat A 0.058 | vemurafenib 0.202 | [11] -0.037 | [12] 0.006 | givinostat -0.251 | barasertib 0.079

MED24 (UniProt O75448)
inactive: IRAK-1-4 Inhibitor I -0.023 | ibrutinib -0.024 | [1] -0.208 | ralimetinib 0.018 | [2] -0.105 | [3] -0.117 | [4] 0.028 | pinometostat 0.135 | [5] -0.051 | [6] 0.16 | [7] -0.027 | [8] -0.005 | [9] -0.134 | [10] -0.023 | Nexturastat A 0.025 | vemurafenib 0.001 | [11] -0.085 | [12] -0.004 | givinostat 0 | barasertib -0.117

MATR3 (UniProt P43243)
inactive: IRAK-1-4 Inhibitor I -0.133 | ibrutinib 0.046 | [1] -0.179 | ralimetinib -0.076 | [2] 0.008 | [3] -0.02 | [4] 0.228 | pinometostat 0.044 | [5] 0.044 | [6] 0.012 | [7] 0.006 | [8] -0.105 | [10] -0.011 | Nexturastat A 0.282 | vemurafenib -0.14 | [12] -1.19 | givinostat 0.174 | barasertib -0.092

METAP1D (UniProt Q6UB28)
inactive: IRAK-1-4 Inhibitor I -0.122 | ibrutinib 0.017 | [1] 0.084 | ralimetinib 0.01 | [2] -0.032 | [3] 0.094 | [4] 0.044 | pinometostat -0.003 | [6] -0.024 | [7] -0.022 | [8] 0.009 | [9] 0.047 | [10] -0.09 | Nexturastat A -0.087 | vemurafenib -0.032 | [11] -0.053 | [12] 0.056 | givinostat -0.054 | barasertib -0.074

MBTPS1 (UniProt Q14703)
inactive: IRAK-1-4 Inhibitor I -0.05 | ibrutinib -0.262 | [1] -0.069 | ralimetinib 0.095 | [2] 0.012 | [3] 0.001 | [4] 0.13 | pinometostat 0.043 | [5] -0.037 | [6] 0.018 | [7] -0.059 | [8] 0.086 | [9] -0.029 | [10] -0.133 | Nexturastat A 0.092 | vemurafenib -0.077 | [11] -0.035 | [12] 0.201 | givinostat -0.09 | barasertib -0.085

MED7 (UniProt O43513)
inactive: IRAK-1-4 Inhibitor I 0.042 | ibrutinib 0.042 | [1] 0.001 | ralimetinib 0.113 | [2] 0.022 | [3] -0.078 | [4] -0.068 | pinometostat 0.113 | [6] 0.119 | [7] 0.049 | [8] -0.023 | [9] -0.009 | [10] 0.015 | Nexturastat A 0.212 | vemurafenib -0.021 | [11] -0.093 | givinostat -0.008 | barasertib -0.149
active: [5] 0.403

ME1 (UniProt P48163)
inactive: IRAK-1-4 Inhibitor I 0.025 | ibrutinib 0.012 | [1] -0.011 | ralimetinib -0.026 | [2] 0.002 | [3] 0.05 | [4] -0.002 | pinometostat -0.029 | [5] -0.028 | [6] 0.008 | [7] 0.027 | [8] 0.01 | [9] 0.01 | [10] -0.015 | Nexturastat A -0.079 | vemurafenib 0.012 | [11] -0.019 | [12] -0.01 | givinostat -0.007 | barasertib 0.019

MBNL1 (UniProt Q9NR56)
inactive: IRAK-1-4 Inhibitor I 0.007 | ibrutinib 0.003 | [1] 0.021 | ralimetinib -0.022 | [2] 0.014 | [3] 0.046 | [4] -0.002 | pinometostat -0.013 | [5] 0.05 | [6] 0.029 | [7] -0.011 | [8] 0.047 | [9] -0.01 | [10] -0.01 | Nexturastat A -0.039 | vemurafenib -0.087 | [11] -0.009 | [12] -0.028 | givinostat 0.019 | barasertib -0.018

MCM7 (UniProt P33993)
inactive: IRAK-1-4 Inhibitor I 0.012 | ibrutinib -0.009 | [1] -0.03 | ralimetinib -0.007 | [2] -0.027 | [3] -0.082 | [4] -0.022 | pinometostat -0.031 | [5] 0.01 | [6] -0.019 | [7] -0.014 | [8] 0.001 | [9] -0.009 | [10] 0.017 | Nexturastat A -0.01 | vemurafenib 0.044 | [11] 0.014 | [12] -0.028 | givinostat 0.012 | barasertib 0.014

MED8 isoform 2 (UniProt Q96G25)
active: vemurafenib 0.36
inactive: IRAK-1-4 Inhibitor I -0.051 | ibrutinib 0.038 | [1] -0.216 | ralimetinib -0.013 | [2] -0.081 | [3] 0.05 | [4] 0.06 | pinometostat -0.043 | [7] -0.085 | [8] 0.038 | [9] -0.03 | [10] 0.089 | Nexturastat A 0.045 | [11] -0.027 | [12] 0.081 | givinostat -0.038 | barasertib -0.059

Quoted at random: two records from the list.
MBNL1 (UniProt Q9NR56)
inactive: IRAK-1-4 Inhibitor I 0.007 | ibrutinib 0.003 | [1] 0.021 | ralimetinib -0.022 | [2] 0.014 | [3] 0.046 | [4] -0.002 | pinometostat -0.013 | [5] 0.05 | [6] 0.029 | [7] -0.011 | [8] 0.047 | [9] -0.01 | [10] -0.01 | Nexturastat A -0.039 | vemurafenib -0.087 | [11] -0.009 | [12] -0.028 | givinostat 0.019 | barasertib -0.018

MED8 isoform 2 (UniProt Q96G25)
active: vemurafenib 0.36
inactive: IRAK-1-4 Inhibitor I -0.051 | ibrutinib 0.038 | [1] -0.216 | ralimetinib -0.013 | [2] -0.081 | [3] 0.05 | [4] 0.06 | pinometostat -0.043 | [7] -0.085 | [8] 0.038 | [9] -0.03 | [10] 0.089 | Nexturastat A 0.045 | [11] -0.027 | [12] 0.081 | givinostat -0.038 | barasertib -0.059

Further entries:

MCOLN1 (UniProt Q9GZU1)
inactive: IRAK-1-4 Inhibitor I -0.055 | ibrutinib -0.039 | ralimetinib 0.042 | [2] 0.12 | [3] -0.244 | [4] 0.177 | pinometostat -0.068 | [5] 0.031 | [7] -0.1 | [8] 0.073 | [9] 0.258 | [10] -0.102 | Nexturastat A 0.205 | [11] -0.007 | [12] -0.141 | givinostat -0.033 | barasertib -0.058
